PubChem BioAssay AID1259254, NCATS | 2017
Shown is a random part of about 59,000 reagents. Over the whole deposit, about 1,550 (2.6%) got an active call. 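G2 share is only a proxy for re-replication; each gene was hit by three separate siRNAs, and active genes were retested.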 Not all columns of the deposit are shown. Not given: the amount of reagent.

- Aim: 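Genome-wide screen for genes that prevent DNA re-replication in cancer cells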 (primary screen)
- Cell system: human HCT116 colorectal cancer cells
- Reagent: single siRNA against human genes
- Time to read-out: 3 days
- Detection: 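Imaged Hoechst DNA stain sorts each cell into a cycle phase by DNA amount; per plate, G2 fraction set to 0% for non-targeting and 100% for GMNN siRNA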
- Direction: G2 robust z-score and G2 cells, % of GMNN control: higher = more G2 cells, more excess DNA replication
- Call rule: 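An siRNA counts as active if its G2 robust z-score lies at least 5 MADs above the screen median; here such calls match roughly 38% of GMNN control or more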

gene,PubChem SID,G2 robust z-score,"G2 cells, % of GMNN control",call
KCND2 (potassium voltage-gated channel subfamily D member 2),SID160776146,-0.762,-2.4,inactive
KCND2 (potassium voltage-gated channel subfamily D member 2),SID160776147,-0.28,0.995,inactive
KCND2 (potassium voltage-gated channel subfamily D member 2),SID160776148,-0.653,-1.63,inactive
ERF (ETS2 repressor factor),SID160761726,0.9,9.3,inactive
ERF (ETS2 repressor factor),SID160761736,-0.838,-2.93,inactive
ERF (ETS2 repressor factor),SID160761747,-0.703,-1.98,inactive
TPPP2 (tubulin polymerization promoting protein family member 2),SID160755996,1.12,10.8,inactive
TPPP2 (tubulin polymerization promoting protein family member 2),SID160755997,2.1,17.7,inactive
TPPP2 (tubulin polymerization promoting protein family member 2),SID160755998,-0.376,0.32,inactive
LCE2B (late cornified envelope 2B),SID160732862,-0.945,-3.68,inactive
LCE2B (late cornified envelope 2B),SID160737815,3.43,27.1,inactive
LCE2B (late cornified envelope 2B),SID160737816,1.78,15.5,inactive
RAD1 (RAD1 checkpoint DNA exonuclease),SID160715442,-1.01,-4.17,inactive
RAD1 (RAD1 checkpoint DNA exonuclease),SID160715443,-0.445,-0.164,inactive
RAD1 (RAD1 checkpoint DNA exonuclease),SID160715445,-0.191,1.63,inactive
MPDU1 (mannose-P-dolichol utilization defect 1),SID160722416,0.926,9.48,inactive
MPDU1 (mannose-P-dolichol utilization defect 1),SID160722417,1.67,14.7,inactive
MPDU1 (mannose-P-dolichol utilization defect 1),SID160722418,-0.123,2.1,inactive
LIAS (lipoic acid synthetase),SID160729758,-1.07,-4.56,inactive
LIAS (lipoic acid synthetase),SID160729759,-0.755,-2.34,inactive
LIAS (lipoic acid synthetase),SID160730492,1.52,13.7,inactive
TIGD4 (tigger transposable element derived 4),SID160761024,-0.0756,2.44,inactive
TIGD4 (tigger transposable element derived 4),SID160761025,4.4,33.9,inactive
TIGD4 (tigger transposable element derived 4),SID160761026,-0.728,-2.16,inactive
VLDLR (very low density lipoprotein receptor),SID160718774,-0.173,1.75,inactive
VLDLR (very low density lipoprotein receptor),SID160718775,-0.0255,2.79,inactive
VLDLR (very low density lipoprotein receptor),SID160718776,-0.804,-2.69,inactive
HOXA1 (homeobox A1),SID160775156,3.47,27.4,inactive
HOXA1 (homeobox A1),SID160775157,0.18,4.23,inactive
HOXA1 (homeobox A1),SID160775158,2.16,18.2,inactive

9 consecutive records already listed, quoted:
gene,PubChem SID,G2 robust z-score,"G2 cells, % of GMNN control",call
TPPP2 (tubulin polymerization promoting protein family member 2),SID160755997,2.1,17.7,inactive
TPPP2 (tubulin polymerization promoting protein family member 2),SID160755998,-0.376,0.32,inactive
LCE2B (late cornified envelope 2B),SID160732862,-0.945,-3.68,inactive
LCE2B (late cornified envelope 2B),SID160737815,3.43,27.1,inactive
LCE2B (late cornified envelope 2B),SID160737816,1.78,15.5,inactive
RAD1 (RAD1 checkpoint DNA exonuclease),SID160715442,-1.01,-4.17,inactive
RAD1 (RAD1 checkpoint DNA exonuclease),SID160715443,-0.445,-0.164,inactive
RAD1 (RAD1 checkpoint DNA exonuclease),SID160715445,-0.191,1.63,inactive
MPDU1 (mannose-P-dolichol utilization defect 1),SID160722416,0.926,9.48,inactive

More entries follow:
gene,PubChem SID,G2 robust z-score,"G2 cells, % of GMNN control",call
HNRNPH3 (heterogeneous nuclear ribonucleoprotein H3),SID160733061,-0.157,1.86,inactive
HNRNPH3 (heterogeneous nuclear ribonucleoprotein H3),SID160775138,1.27,11.9,inactive
HNRNPH3 (heterogeneous nuclear ribonucleoprotein H3),SID160775139,-0.466,-0.308,inactive
PPIF (peptidylprolyl isomerase F),SID160725435,-0.463,-0.288,inactive
PPIF (peptidylprolyl isomerase F),SID160725437,-0.727,-2.15,inactive
PPIF (peptidylprolyl isomerase F),SID160725443,-0.768,-2.44,inactive
RBM42 (RNA binding motif protein 42),SID160748742,-0.155,1.88,inactive
RBM42 (RNA binding motif protein 42),SID160748743,1.92,16.4,inactive
RBM42 (RNA binding motif protein 42),SID160748744,-0.43,-0.0591,inactive
NLRP10 (NLR family pyrin domain containing 10),SID160764007,-0.908,-3.42,inactive
NLRP10 (NLR family pyrin domain containing 10),SID160764008,3.75,29.4,inactive
NLRP10 (NLR family pyrin domain containing 10),SID160764009,0.28,4.94,inactive
TALDO1 (transaldolase 1),SID160717693,-0.232,1.33,inactive
TALDO1 (transaldolase 1),SID160717694,-0.452,-0.215,inactive
TALDO1 (transaldolase 1),SID160731812,-0.692,-1.9,inactive
PIP5KL1 (phosphatidylinositol-4-phosphate 5-kinase like 1),SID160730624,0.218,4.5,inactive
PIP5KL1 (phosphatidylinositol-4-phosphate 5-kinase like 1),SID160757597,3.97,30.9,inactive
PIP5KL1 (phosphatidylinositol-4-phosphate 5-kinase like 1),SID160757598,-0.498,-0.536,inactive
VPS13B (vacuolar protein sorting 13 homolog B),SID160759538,-0.263,1.12,inactive
VPS13B (vacuolar protein sorting 13 homolog B),SID160759539,-0.352,0.49,inactive
VPS13B (vacuolar protein sorting 13 homolog B),SID160759540,2.73,22.2,inactive
DTWD2 (DTW motif tRNA-uridine aminocarboxypropyltransferase 2),SID160763666,1.91,16.4,inactive
DTWD2 (DTW motif tRNA-uridine aminocarboxypropyltransferase 2),SID160763667,-0.00851,2.91,inactive
DTWD2 (DTW motif tRNA-uridine aminocarboxypropyltransferase 2),SID160763668,0.337,5.34,inactive
CINP (cyclin dependent kinase 2 interacting protein),SID160740984,-1.4,-6.88,inactive
CINP (cyclin dependent kinase 2 interacting protein),SID160740985,0.671,7.69,inactive
CINP (cyclin dependent kinase 2 interacting protein),SID160740987,0.301,5.08,inactive
PABPC4 (poly(A) binding protein cytoplasmic 4),SID160720753,-0.522,-0.704,inactive
PABPC4 (poly(A) binding protein cytoplasmic 4),SID160720754,-0.205,1.53,inactive
PABPC4 (poly(A) binding protein cytoplasmic 4),SID160720755,-0.184,1.67,inactive
FAM221A (family with sequence similarity 221 member A),SID160764403,2.81,22.7,inactive
FAM221A (family with sequence similarity 221 member A),SID160764404,-0.895,-3.33,inactive
FAM221A (family with sequence similarity 221 member A),SID160764405,0.327,5.27,inactive
C22orf15 (chromosome 22 open reading frame 15),SID160758932,-0.808,-2.72,inactive
C22orf15 (chromosome 22 open reading frame 15),SID160758933,0.0624,3.41,inactive
C22orf15 (chromosome 22 open reading frame 15),SID160758934,-0.631,-1.47,inactive
FSCB (fibrous sheath CABYR binding protein),SID160751686,2.86,23.1,inactive
FSCB (fibrous sheath CABYR binding protein),SID160751687,-0.0432,2.66,inactive
FSCB (fibrous sheath CABYR binding protein),SID160751688,0.0324,3.2,inactive
AMZ2 (archaelysin family metallopeptidase 2),SID160740609,-0.217,1.44,inactive
AMZ2 (archaelysin family metallopeptidase 2),SID160740610,1.73,15.2,inactive
AMZ2 (archaelysin family metallopeptidase 2),SID160740611,-0.157,1.87,inactive
TP63 (tumor protein p63),SID160720456,0.371,5.58,inactive
TP63 (tumor protein p63),SID160720457,-0.664,-1.7,inactive
TP63 (tumor protein p63),SID160720458,0.61,7.26,inactive
VASN (vasorin),SID160755127,-0.173,1.75,inactive
VASN (vasorin),SID160755128,-0.311,0.777,inactive
VASN (vasorin),SID160755129,-0.744,-2.27,inactive
PPIAP19 (peptidylprolyl isomerase A pseudogene 19),SID160725250,0.526,6.67,inactive
PPIAP19 (peptidylprolyl isomerase A pseudogene 19),SID160725252,-0.224,1.39,inactive
PPIAP19 (peptidylprolyl isomerase A pseudogene 19),SID160766327,3.65,28.7,inactive
RWDD2B (RWD domain containing 2B),SID160724913,-0.57,-1.05,inactive
RWDD2B (RWD domain containing 2B),SID160724923,-0.489,-0.476,inactive
RWDD2B (RWD domain containing 2B),SID160724932,0.0347,3.21,inactive
TMEM89 (transmembrane protein 89),SID160725411,0.835,8.85,inactive
TMEM89 (transmembrane protein 89),SID160725412,0.0574,3.37,inactive
TMEM89 (transmembrane protein 89),SID160733405,-0.45,-0.198,inactive
